Measurements from PubChem BioAssay AID651640 (Broad Institute, 2012).
Several values for one entry are separate records, joined by “and”; a condition that tells them apart may be missing. Identical values can stand only once. The campaign covered roughly 350,000 compounds. About 6,000 (1.7%) were called active. Inconclusive results, whose numbers are uncertain, are shown with a selection of clear calls. Cut-off read from the data, not from the text of the source: active = CPE inhibition above about 20% (passing the limit was not always enough); inconclusive = no clear call, values can overlap the other calls; tested in BHK-21 cells. More than one record can exist for a structure, and the calls need not agree.

test: protection of cells from dengue 2 killing – plate reader, single concentration, primary screen (AID 651640); conditions: DENV2-infected cells, cytopathic effect rescue, at 9.99 µM, hits give high values;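 note: 0% = median of neutral control wells and 100% = median of positive control wells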

| SMILES | CPE inhibition |
| --- | --- |
| COC(=O)[C@]1(Cc2ccccc2)N[C@H](CN(C)C(=O)Nc2ccc(OC)cc2)[C@@H]2C(=O)N(C)C(=O)[C@@H]21 | inconclusive: 45.3% |
| CCC(=O)N(C)C[C@H]1Oc2cc(-c3ccccc3F)ccc2S(=O)(=O)N([C@H](C)CO)C[C@H]1C | active: 24.5% |
| CCC(=O)N1CCCC1(C)C(=O)Nc1ccc2c(c1)CCN2C(C)=O (configuration not stated) | inconclusive: 24.5% |
| O=C(C[C@@H]1C=C[C@@H](NC(=O)NC2CCCCC2)[C@H](CO)O1)NCc1ccccc1 | inactive: -0.5% |
| O=C1CCCC/C=C\C[C@H](CC(=O)N(CCO)Cc2ccccc2)C(=O)NC[C@H](c2ccccc2)O1 | active: 130% |
| Cc1ccc(CNC(=O)C(=O)c2cn(CC(=O)N3CCOCC3)c3ccccc23)cc1 | inconclusive: 75.7% |
| Nc1[nH]c(C(=O)c2ccccc2)c(-c2ccc(Cl)c(F)c2)c1C(=O)c1c[nH]c2ccccc12 | inactive: 3.17% |
| CN1C(=O)c2cc(NC(=O)C3CCOCC3)ccc2OC[C@@H]2O[C@@H](CC(=O)O)CC[C@@H]21 | inactive: -8.18% |
| COc1ccc2c3c([nH]c2c1)[C@@H](CO)N(C(=O)c1cnccn1)CC31CN(S(C)(=O)=O)C1 | inactive: -1.4% |
| NC(=O)c1ccsc1NC(=O)COC(=O)c1ccc([N+](=O)[O-])o1 | inconclusive: 70.5% |
| CC(=O)Nc1cc(-c2cccc(NS(C)(=O)=O)c2)cn2c(-c3cccc(C(C)=O)c3)cnc12 | active: 32.9% |
| Clc1ncc(CSc2ccccc2)s1 | inconclusive: 23.7% |
| COc1cc(CNC2CCCCCCC2)c(Br)cc1OCCO | inconclusive: 25.4% |
| CCOc1ccc(NC(=O)COC(=O)CNC(=O)c2ccc(-c3ccccc3)cc2)cc1 | inactive: -8.8% |
| C[C@@H]1CN([C@@H](C)CO)C(=O)c2cc(NS(C)(=O)=O)ccc2O[C@@H](C)CCCCO[C@@H]1CN(C)C(=O)NC1CCCCC1 | inactive: 0.447% |
| COc1cc(NC(C)=O)c2ncccc2c1Br | active: 89.1% |
| CN(C)S(=O)(=O)c1cccc(NC(=O)c2ccc3c(c2)S(=O)(=O)N=C2CCCCCN23)c1 | inactive: 12.3% |
| O=C1OC(O)c2cccc3cccc1c23 (configuration not stated) | inconclusive: 25.6% |
| O=C(C[C@H]1C[C@H](C(=O)N2CCOCC2)[C@@]2(CCC3CCCC3)c3[nH]c4cc(-c5ccco5)ccc4c3CCN2C1=O)NCCCn1ccnc1 | inconclusive: 31.5% |
| COc1ccccc1N1CCN(C(=O)NCc2cccc(C(F)(F)F)c2)CC1 | inconclusive: 26.2% |
| CN(C)C(CNC(=O)c1cccc(C(F)(F)F)c1)c1ccco1 (configuration not stated) | inconclusive: 36.4% |
| O=C(CNC(=O)c1ccco1)Nc1ccc2c(c1)OCCO2 | inconclusive: 37.3% |
| CCS(=O)(=O)NCC[C@@H]1CC[C@@H](NC(=O)Cc2ccccn2)[C@H](CO)O1 | inconclusive: 49.6% |
| O=C(Nc1ccc(F)cc1)OCCOc1ccc(Br)cc1 | inconclusive: 21.1% |

| SMILES | CPE inhibition |
| --- | --- |
| CCOC(=O)N1CCC(C(=O)Nc2ccc(OCC)cc2)CC1 | inactive: 1.48% |
| C[C@H](CO)N1C[C@H](C)[C@H](CN(C)S(=O)(=O)c2cn(C)cn2)Oc2c(NC(=O)Nc3ccc(C(F)(F)F)cc3)cccc2C1=O | inconclusive: 28.5% |
| CCCCCCn1c(=O)n2n(c1=O)C[C@]1(OC(=O)NC3CCCC3)CN(S(=O)(=O)c3ccc(C)cc3)C[C@]1(O)C2 | inconclusive: 67.8% |
| O=C(COC(=O)c1cc(Br)ccc1Cl)NC(=O)NCc1ccccc1 | inactive: 4.6% |
| CC(=O)NCCNc1nc2cc(-c3cccc(C(F)(F)F)c3)sc2c(=O)n1C | inconclusive: 30.3% |
| CCOC(=O)C1=C(C)N(CCCC(=O)O)C(=O)NC1c1ccc([N+](=O)[O-])cc1 (configuration not stated) | active: 102% |
| CC(C)(C)OC(=O)N1CCC[C@@H]1C(=O)N1CCC[C@@H]1C(=O)NCc1ccccc1Cl | active: 33.5% |
| CCC(=O)N1C[C@@H](O)COC[C@@H]2O[C@@H](CC(=O)NCc3ccccc3Cl)CC[C@H]21 | inconclusive: 27.6% |
| COc1ccc(C(=O)N(C)Cc2ccc(C)o2)cc1OC1CCN(C(C)=O)CC1 | inconclusive: 52.4% |
| O=C(C[C@H]1CC[C@H](NC(=O)c2cccc(F)c2)[C@H](CO)O1)NCCN1CCCC1 | inactive: -0.95% |
| COc1ccc(CN(C)C[C@H]2OCCCC[C@H](C)Oc3ccc(NS(=O)(=O)c4cn(C)cn4)cc3C(=O)N([C@@H](C)CO)C[C@@H]2C)cc1 | inactive: -12.8% |
| C[C@@H]1CN([C@H](C)CO)C(=O)c2cc(NC(=O)CCCN(C)C)ccc2O[C@@H](C)CCCCO[C@H]1CN(C)S(=O)(=O)c1ccccc1 | active: 23% |
| O=C(c1ccc2c(c1)OCO2)N1CC(=O)N2[C@H](CO)[C@H](c3ccc(C#Cc4ccccc4)cc3)[C@H]2C1 | inconclusive: 59.2% |
| O=S(=O)(c1ccccc1)N1CCCCN2[C@@H](CO)[C@@H](c3ccc(C#Cc4ccccn4)cc3)[C@@H]2C1 | inconclusive: 49.2% |
| COc1ccc(NC(=O)Nc2ccc3c(c2)C(=O)N([C@H](C)CO)C[C@H](C)[C@@H](CN(C)S(=O)(=O)c2cn(C)cn2)O3)cc1 | inactive: -7.24% |
| COC(=O)CNC(=O)COC(=O)c1ccc(OC)c([N+](=O)[O-])c1 | inconclusive: 80.3% |
| COc1ccccc1OCc1ccc(C(=O)N/N=C/c2ccco2)cc1 | inconclusive: 40.2% |
| CN1C(=O)c2cc(NC(=O)C3CCCC3)ccc2OC[C@H]2O[C@@H](CC(=O)NCC3CC3)CC[C@@H]21 | active: 32.4% |
| CCCn1cnc2cc(NCc3ccccn3)ccc21 | inconclusive: 44.2% |
| C[C@@H]1CCCCO[C@H](CN(C)S(C)(=O)=O)[C@@H](C)CN([C@H](C)CO)C(=O)c2cc(NS(C)(=O)=O)ccc2O1 | inactive: 1.04% |
| Cc1cc(C)cc(N(CC(=O)NC2CCC(C)CC2)S(=O)(=O)c2c(C)noc2C)c1 (configuration not stated) | inconclusive: 27.1% |
| C[C@H](CO)N1C[C@H](C)[C@@H](CN(C)C(=O)c2ccc(F)cc2)Oc2cc(Br)ccc2S1(=O)=O | inactive: 5.57% and inactive: 7.91% |
| CCN(C(=O)COC(=O)c1ccc(Cl)c(S(=O)(=O)N2CCCCC2)c1)C1CCS(=O)(=O)C1 (configuration not stated) | inconclusive: 47.2% |
| O=C(O)C1OC(Oc2cc3oc(-c4ccccc4)cc(=O)c3c(O)c2O)C(O)C(O)C1O (configuration not stated) | inconclusive: 27% |

| SMILES | CPE inhibition |
| --- | --- |
| CN(C[C@H]1N[C@@H](CO)[C@@H]1c1ccc(C2=CCCC2)cc1)C(=O)c1ccccn1 | inactive: 18.8% |
| CC(C)c1ccccc1NC(=O)CSc1n[nH]c(=O)n1C1CC1 | inconclusive: 66.8% |
| CN1CCN(C(c2ccc(Cl)cc2)c2cc(Cl)c3cccnc3c2O)CC1 (configuration not stated) | inconclusive: 23.9% |
| Cc1[nH]c2ccccc2c1C(=O)C(=O)NCc1nnnn1-c1ccc(F)cc1 | inconclusive: 39.7% |
| Cc1ccc(S(=O)(=O)N2CCCCC2CCNC(=O)C(=O)NCC2CCCO2)cc1 (configuration not stated) | inconclusive: 22.8% |
| O=C(O)C1=CC2C=C(Cl)C=CC2OC1=O (configuration not stated) | inconclusive: 21.2% |
| O=C(Cc1ccc(F)cc1)N1CCN=C1SCc1ccc([N+](=O)[O-])cc1 | inconclusive: 27.3% |
| FC(F)(F)c1cccc(NCc2n[nH]c(=S)n2C2CCCCC2)c1 | inconclusive: 21.3% |
| CC1CN(C(=O)CSc2nc(N)cc(N)n2)CC(C)O1 (configuration not stated) | inconclusive: 28.2% |
| O=C(OCC(=O)N(C1CCCCC1)C1CCCCC1)c1ccc(Cl)nc1 | inconclusive: 29.8% |
| CN(Cc1ccc2c(c1)CCCN2C)C(=O)[C@@H](Cc1ccccc1)NC(=O)[C@H]1O[C@@H](n2ccc(=O)[nH]c2=O)[C@H](O)[C@@H]1O | inconclusive: 28.6% |
| CC(=O)N1[C@H](CO)[C@@H](c2ccc(-c3cccc(F)c3)cc2)[C@@H]1CNC(=O)C1CC1 | inconclusive: 4.51% |
| Cc1nccn1-c1ccc(C(F)(F)F)cc1[N+](=O)[O-] | inactive: -3.64% |
| COc1cc2c(cc1OC)[C@@H]1Cc3ccc(OC)c(OC)c3CN1CC2 | inactive: 4.28% |
| CN1C(=O)[C@H]2[C@@H](/C=C/c3ccccc3)N3C(=O)CN(CCO)C(=O)[C@@]3(Cc3ccccc3)[C@H]2C1=O | inactive: 9.25% |
| C[C@@H]1CN([C@@H](C)CO)C(=O)CCCn2nncc2CO[C@H]1CN(C)S(C)(=O)=O | inconclusive: 29.1% and inconclusive: 25.3% |
| O=C(C[C@H]1CC[C@H](NC(=O)Nc2ccc(C(F)(F)F)cc2)[C@@H](CO)O1)NCc1ccccn1 | inconclusive: 27% |
| COc1cc2c(cc1OC)C(C1C(=O)CC(C)(C)CC1=O)N(C(=O)CCl)CC2 (configuration not stated) | inconclusive: 20.6% |
| CCOC(=O)c1cccc(S(=O)(=O)N2CCCC2)c1 | inactive: -1.74% |
| CCc1ccc2c(c1)C(=O)C(=O)N2CCS(=O)(=O)c1ccccc1 | inconclusive: 20.8% |
| C[C@@H]1CN([C@H](C)CO)C(=O)Cc2cc(NC(=O)CCC(F)(F)F)ccc2O[C@@H]1CN(C)Cc1ccc(C(=O)Nc2ccccc2N)cc1 | active: 37.6% |
| COCC(=O)N1[C@H](CO)[C@H](c2ccccc2)C12CN(C(=O)Nc1ccccc1F)C2 | active: 35.7% |
| CC1CCCN(C(=O)c2ccc(CNc3c(N4CCCCC4)c(=O)c3=O)cc2)C1 (configuration not stated) | inconclusive: 33.7% |
| Cc1noc(C)c1S(=O)(=O)Nc1ccc2c(c1)C(=O)N([C@H](C)CO)C[C@H](C)[C@H](CN(C)S(=O)(=O)c1ccc(F)cc1)O2 | inconclusive: 20.4% |
